Reference: US12496315B2, “Compositions for drug delivery and methods of use thereof” (Stellular Bio, Inc., priority 2018, dated 2025)
Structures can show the parent of a compound that is named as a salt.

How the values were obtained:
human washed platelets = test: Doxorubicin loading of washed platelets by passive diffusion; type: cell-based
[1] = system: human iPSC-derived platelets; test: Passive loading of Ipilimumab in human iPSC-derived platelets; type: cell-based
[2] = system: human iPSC-derived platelets; test: Covalent conjugation of Ipilimumab to human iPSC-derived platelets; type: cell-based; settings: CD61 and PF4 staining
CD34+ derived platelets = test: Ipilimumab-Cy5.5 loading in CD34+ derived platelets; type: cell-based, human
mature megakaryocytes = test: Passive loading of Atezolizumab in iPSC-derived megakaryocytes; type: cell-based, human
Human donor platelets = test: Antibody uptake by human donor platelets (flow cytometry, confocal); type: cell-based

COc1cccc2c1C(=O)c1c(O)c3c(c(O)c1C2=O)C[C@@](O)(C(=O)CO)C[C@@H]3O[C@H]1C[C@H](N)[C@H](O)[C@H](C)O1 [doxorubicin, Doxorubicin hydrochloride]
retention of drug cargo after multiple wash steps (human washed platelets; 10 μM): still be retained
incubation time sufficient to see detectable doxorubicin (human washed platelets; 10 μM, 1e7 platelets in 1 ml, ambient temperature, dialysis cassette): 30 min
doxorubicin signal at the longest incubation (human washed platelets; after 1440 minutes): signal retained

Ipilimumab: anti-CTLA4 antibody drug, commercially available (Selleckchem #A2001)
localization by immunofluorescence ([1]; 100 μg/ml, not conjugated to Cy5.5, CD61 and PF4 staining): on the cell surface and within select alpha granules
Ipilimumab encapsulation, flow cytometry histogram ([1]; 1, 10, 30, and 60 μg per 1e6 platelets in 100 microliter, 37° C. for 1 hour): dose-dependent increase
localization by immunofluorescence [2]: conjugated mostly on the cell surface
drug signal localization (CD34+ derived platelets; PF4 and CD61 staining): punctate within the cell
input ratio sufficient to see a maximal signal by flow cytometry (CD34+ derived platelets; pg of Ipilimumab per platelet in the reaction vessel): 100-300 pg/plt
maximal signal by flow cytometry (CD34+ derived platelets; varying concentrations up to 600 μg/ml, 1 hour at 37 degrees Celsius): without a maximal signal established

atezolizumab: anti-PD-L1 antibody, FDA approved antibody drug
uptake by megakaryocytes and their static generated platelets (mature megakaryocytes; Dylight 488-labeled, 30 minutes): capable of uptake of atezolizumab
localization (mature megakaryocytes; PF4 stain): colocalize with the alpha granule stain PF4
localization by confocal microscopy (Human donor platelets; AlexaFluor 488 anti-human secondary IgG, CD61-APC): sub-cellular localization within the platelets
uptake by platelets (Human donor platelets; labeled antibody): up to 200 μg
plateau or maximum dose of uptake (Human donor platelets; up to 200 μg): did not exhibit a plateau or maximum dose of uptake
